# Results taken from PubChem BioAssay AID540276 (National Center for Advancing Translational Sciences (NCATS), 2011).
# Where “and” joins values, the source holds several entries; their conditions need not be identical. Equal entries are not always repeated. Hit rate of the full screen: of about 300,000 compounds, about 5,400 (1.8%) were called active. This list was built around the results that the source calls inconclusive (neither active nor inactive); the mix of calls is not that of the screen. The call rests on the fitted dose curve; tested in HEK293 cells. A potency beside an inconclusive call is a rough fit, not a confirmed value.
# Experiment: qHTS for inhibitors of binding or entry into cells for Marburg Virus
# Details: Marburg virus pseudotyped entry inhibition, cell reporter; series mostly up to 37.8 µM
# Potency means the concentration at half of the fitted maximal effect.
row,Structure (SMILES),Potency
1,O=C(Nc1ccc(Cl)c(S(=O)(=O)N2CCCC2)c1)c1nn(CCO)c(=O)c2ccccc12,"inconclusive: 10 µM [inhibitor, partial curve, poor fit]"
2,Cc1ccc(-c2ccc(/C=N\NC(=O)c3cc4c(ccc5ccccc54)o3)o2)cc1[N+](=O)[O-],inactive
3,COc1ccc(-c2nc(CN3CCCCC3CCc3ccccn3)c(C)o2)cc1 (stereo not given),"inconclusive: 12.6 µM [inhibitor, partial curve, poor fit]"
4,O=C(/C(=C(\[O-])c1ccccc1)[n+]1ccc2ccccc2c1)c1ccc(Cl)cc1,inactive
5,Clc1cccc(OCCn2ccnc2)c1,inactive
6,CCOc1ccc(C)cc1S(=O)(=O)n1ccnc1,"inconclusive: 0.112 µM [activator, full curve, poor fit]"
7,COc1ccc2[nH]cc(CCN(C)C)c2c1,"inconclusive: 3.55 µM [activator, single point]"
8,CC(OC(=O)c1cccnc1Cl)C(=O)Nc1ccc2c(c1)OCCO2 (stereo not given),inactive
9,CCCCCn1c(=N)n(CC(O)COc2cccc(C)c2)c2ccccc21 (stereo not given),"inconclusive: 10 µM [inhibitor, partial curve, poor fit]"
10,Cc1ccc(C)c(Cn2nc(C)n3c(cc4cc(C)ccc43)c2=O)c1,inactive
11,CSc1nsc(SCC(=O)Nc2nc3ccccc3s2)n1,inactive
12,CC(=O)c1ccc(N2CCN(C(=S)Nc3cccc(F)c3)CC2)cc1,inactive
13,CC(Nc1ccc(-c2nc(-c3ccccn3)no2)cc1[N+](=O)[O-])c1ccccc1 (stereo not given),inactive
14,COc1ccc(C(=O)N/N=c2\oc3ccccc3cc2C(=O)NCc2ccccc2)cc1,"inconclusive: 28.2 µM [activator, single point]"
15,Cc1ccc(C)c(N2CCN(C(=O)C(C)n3c(C)c4cnn(-c5ccccc5)c(=O)c4c3C)CC2)c1 (stereo not given),inactive
16,Cc1nn(C)c(C)c1Nc1ccc(N2C(=O)C3CC=CCC3C2=O)cc1[N+](=O)[O-] (stereo not given),"inconclusive: 35.5 µM [inhibitor, single point]"
17,Cc1ccc(SCC(=O)OCC(=O)NCCNC(=O)COC(=O)CSc2ccc(C)c(C)c2)cc1C,"inconclusive: 2.82 µM [activator, single point]"
18,CN(C)/N=C/c1ccc(/C=N/NC(N)=S)o1,"inconclusive: 1.26 µM [inhibitor, full curve, poor fit]"
19,CCN(CC)S(=O)(=O)c1ccc2oc(C(=O)NCCN3CCOCC3)c(C)c2c1,inactive
20,CCCCNCC1C(Oc2ccc(Cl)cc2)C(=O)N1c1ccccc1C (stereo not given),"inconclusive: 14.1 µM [inhibitor, partial curve, poor fit]"
21,CCc1ncc(C(=O)c2ccc(OC)cc2)n1C,inactive
22,O=C1CN(C(=O)OCc2ccccc2)c2ccccc2N1,inactive
23,O=C(NCCc1nc2ccccc2[nH]1)c1cccc(Br)c1,inactive
24,O=C(Nc1nc2ccccc2n1CCN1CCOCC1)c1ccc(Cl)cc1,"inconclusive: 2.24 µM [activator, full curve]"
25,CC1CCN(c2c([N+](=O)[O-])c(=O)oc3ccccc23)CC1,"inconclusive: 0.517 µM [activator, single point]"

row,Structure (SMILES),Potency
1,S=C(NCc1cccs1)Nc1cccc(Cl)c1Cl,inactive
2,COc1ccc(Cl)cc1N(C)C(=O)C(=O)Nc1ccc2nc3n(c(=O)c2c1)CCCCC3,"inconclusive: 25.1 µM [inhibitor, single point]"
3,NC(N)=NCCCCN=C(N)N,"inconclusive: 5.01 µM [inhibitor, partial curve]"
4,Nc1nc(SCc2ccc3c(c2)OCO3)n[nH]1,inactive
5,C=CCOc1ccc(C2C(C(=O)c3ccco3)=C(O)C(=O)N2c2nnc(C)s2)cc1 (stereo not given),inactive
6,O=C(NC1=NCCS1)c1ccc(N2CCCC2=O)cc1,"inconclusive: 5.62 µM [activator, full curve]"
7,CC(NC(=O)CNC(=O)c1ccco1)c1ccc(S(N)(=O)=O)cc1 (stereo not given),inactive
8,CN1CCN(C(=S)Nc2cccc(S(=O)(=O)N(C)C)c2)CC1,"inconclusive: 3.16 µM [inhibitor, single point]"
9,O=C(O)c1cc(N/N=C2/CC(c3ccccc3)Oc3ccccc32)ccc1Cl (stereo not given),"inconclusive: 35.5 µM [activator, single point]"
10,CC1CCCN(CC(O)COC(c2ccccc2)c2ccccc2)C1 (stereo not given),active: 3.98 µM
11,COc1cc(CNCc2ccccn2)ccc1OCc1ccccc1Cl,"inconclusive: 6.31 µM [activator, single point]"
12,COc1cccc(NC(=O)c2nc3ncccn3n2)c1,inactive
13,COc1ccccc1C1C=C(c2ccc(Cl)cc2)Nc2nc(-c3ccc(Cl)cc3)nn21 (stereo not given),"inconclusive: 10 µM [inhibitor, partial curve, poor fit]"
14,COc1cc(/C=C/c2nc(C#N)c(N3CCC(C)CC3)o2)cc(OC)c1OC,inactive
15,CCOC(=O)c1c(C)[nH]c(C(=O)OCc2ccc([N+](=O)[O-])cc2)c1C,"inconclusive: 11.2 µM [inhibitor, partial curve, poor fit]"
16,CNC(=O)CN(c1ccc(F)cc1)S(=O)(=O)c1cc(C)ccc1OC,inactive
17,O=C(NCCc1ccccc1)C(=O)NCC1CCCO1 (stereo not given),"inconclusive: 7.3 µM [activator, partial curve, poor fit]"
18,O=S(=O)(c1ccc(Cl)cc1)N1CCN(C2CCCCCC2)CC1,inactive
19,Cc1cccc(Cc2c(C)nc3nc(SCC(=O)NCc4ccco4)nn3c2C)c1,"inconclusive: 14.6 µM [inhibitor, partial curve, poor fit]"
20,Cc1ccc(/C=C2\Sc3ccccc3C2=O)s1,"inconclusive: 23.1 µM [inhibitor, single point]"
21,CCC(CC)N1CCN(S(=O)(=O)c2ccc(OC)cc2)CC1,"inconclusive: 3.55 µM [inhibitor, single point]"
22,O=C(O)c1ccc(NC2=C/C(=N/S(=O)(=O)c3ccccc3)c3ccccc3C2=O)cc1,active: 3.98 µM
23,O=C(N/N=C\c1cccc(Cl)c1)c1ccc(Cn2cc(Br)c([N+](=O)[O-])n2)o1,"inconclusive: 5.17 µM [inhibitor, partial curve]"
24,COc1cc(SC)ccc1C(=O)Nc1ccc2c(c1)OCO2,"inconclusive: 4.47 µM [inhibitor, partial curve, poor fit]"
25,Cc1cccc(-c2nc3c4ccccc4nc(NCc4ccc(F)cc4)n3n2)c1,"inconclusive: 11.2 µM [activator, partial curve]"

row,Structure (SMILES),Potency
1,O=C(COC(=O)c1cccc(C(=O)OCC(=O)c2ccc(Br)cc2)n1)c1ccc(Br)cc1,"inconclusive: 2.82 µM [activator, full curve, poor fit]"
2,NC(=O)CN1N=C(c2cc(Cl)sc2Cl)CSC1=O,"inconclusive: 3.26 µM [inhibitor, partial curve, poor fit]"
3,C=CCSc1nc2c(c(=O)[nH]c(=O)n2C)n1C/C=C(/C)Cl,"inconclusive: 2.82 µM [inhibitor, partial curve, poor fit]"
4,O=C(Nc1cccnc1)C12CC3CC(CC(C3)C1)C2,inactive
5,COC(=O)N1CCN(C(=O)Cc2ccc(Cl)c(Cl)c2)C(CN2CCCC2)C1 (stereo not given),active: 11.2 µM
6,CCOC(=O)c1cc(C)sc1/N=C/C1C(=O)NC(=S)NC1=O,inactive
7,FC(F)(F)c1cc(-c2ccccc2)nc(NCc2cccnc2)n1,"inconclusive: 10 µM [inhibitor, partial curve, poor fit]"
8,NCC(O)c1ccc(O)cc1 (stereo not given),"inconclusive: 126 nM [inhibitor, full curve, poor fit] and inconclusive: 6.51 µM [activator, full curve, poor fit]"
9,O=C(Cn1cc(C(=O)c2ccccc2)c2ccccc21)Nc1ccc(Br)cc1,"inconclusive: 7.94 µM [inhibitor, partial curve]"
10,CN(C)S(=O)(=O)c1ccc2nc(NC(=O)c3cccs3)sc2c1,"inconclusive: 29.1 µM [inhibitor, single point]"
11,Cc1cc(-c2nnc(SCC(=O)Nc3ccc(F)cc3F)n2N)n[nH]1,inactive
12,COc1cccc(OC(=O)CSc2nnc(-c3ccc4c(c3)OCO4)o2)c1,"inconclusive: 3.55 µM [activator, single point]"
13,O=C(NNC(=O)c1ccc(Cl)c(Cl)c1)c1ccncc1,inactive
14,COc1ccc(-c2ccc(OC)cc2)cc1,inactive
15,O=S(CCc1ccncc1)Cc1ccccc1 (stereo not given),inactive
16,O=C(N/N=C/c1sc(=O)n(-c2ccccc2)c1Cl)c1ccccc1,inactive
17,Cc1cccc2sc(NC(=O)C3c4ccccc4Oc4ccccc43)nc12,"inconclusive: 29.1 µM [inhibitor, single point]"
18,Cc1ccc(NC(=O)CN2C(=O)S/C(=C\c3ccc(-c4cccc(C(=O)O)c4C)o3)C2=O)cc1,inactive
19,COCC(C)n1c(SCC(=O)NC(=O)NCc2ccccc2)nc2ccccc2c1=O (stereo not given),"inconclusive: 17.8 µM [inhibitor, single point]"
20,CSc1ccccc1C(=O)NC1CCCCCC1,inactive
21,Cc1cc(C)cc(C(=O)N(NC(=O)Nc2ccc(Cl)cc2)C(C)(C)C)c1,"inconclusive: 22.4 µM [inhibitor, single point]"
22,O=C(CN1CCN(c2ccc(F)cc2)CC1)Nc1ccc(S(=O)(=O)N2CCOCC2)cc1,inactive
23,CC(=O)c1cccc(NC(=O)c2cc3c(s2)-c2c(C)cccc2OC3)c1,inactive
24,CCc1ccc(/C=N\NC(=O)c2ccc(Br)o2)s1,"inconclusive: 29.1 µM [inhibitor, single point]"
25,COc1ccc(C(CNC(=O)c2ccc(S(=O)(=O)N(C)C)cc2)N(C)C)cc1 (stereo not given),inactive

# Molecules shown so far that have a COOH group:
row,Structure (SMILES),Potency
9,O=C(O)c1cc(N/N=C2/CC(c3ccccc3)Oc3ccccc32)ccc1Cl (stereo not given),"inconclusive: 35.5 µM [activator, single point]"
22,O=C(O)c1ccc(NC2=C/C(=N/S(=O)(=O)c3ccccc3)c3ccccc3C2=O)cc1,active: 3.98 µM
18,Cc1ccc(NC(=O)CN2C(=O)S/C(=C\c3ccc(-c4cccc(C(=O)O)c4C)o3)C2=O)cc1,inactive
